Primary screen of a compound library

Measurements from “University of Dundee, Small-Polar-MMV Screening Library” (2021), ChEMBL document CHEMBL3988442.

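Whole-cell assay for inhibitors of Mycobacterium tuberculosis growth, labelled Cornell in the record; the read-out is not stated. The concentration is filed as 10 mM, unlikely as a test dose, so the dose is not known. The record gives no direction; compounds strong in two other growth screens of this library score well above the rest, so higher reads as stronger inhibition. Size under these conditions: about 53,000 compounds, about 900 of them at 50% or above in at least one test.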

Each number is a percent effect as filed. How 0% and 100% were set is not recorded. Most values in the screen are low, and negative values occur. The compounds are a random part of those screened.

structure	effect
COc1ccccc1N1CCC(CNS(=O)(=O)c2cccs2)C1 (stereo not given)	4.013
CC(C)(O)CN1CCN(C(=O)c2cnn(-c3ccccc3F)c2)CC1	10.48
CN(C)c1nc2c(c(N3CCCC4(CC3)CNC(=O)O4)n1)CCCC2 (stereo not given)	5.12
COc1cc(C(F)(F)F)sc1C(=O)O	7.51
O=C(c1ccn(-c2cccc(F)c2)n1)N1CCN(CC2CC2)CC1	-43.55
Cc1cnn(CC2CCCCN2c2ncnc3ccccc23)c1 (stereo not given)	23.66
CNc1nc2c(s1)C(=O)CN(C(=O)NCCc1ccccc1)C2	-48.37
O=C1CN(c2ccc(CNC(=O)c3cccnc3O)cc2F)CCN1	-6.134
COc1ccc(CC(=O)Nc2c(C)nc(N3CCOCC3)nc2C)cc1	3.579
O=C(O)c1ncccc1N1CCCCC1	-36.58
Cc1nc(NC(=O)N2CCCC(C(F)(F)F)C2)nn1C (stereo not given)	-36.12
O=C(O)C(F)(F)F.[H][C@@]12CCN(CC3CCOCC3)[C@@]1([H])CCN2C(=O)c1ccc(F)cc1	30.84
COc1cc(S(=O)(=O)N2CCc3cc(Br)ccc32)cc(C(=O)O)c1OC	2.459
CC1CCN(CCNC(=O)c2ccn(-c3ccccc3)n2)CC1	-49.27
Cc1noc(C2CCCN(CC(=O)N3CCNC(=O)C3)C2)n1 (stereo not given)	26.73
CCC[C@@H]1CN(Cc2ccc(C(F)(F)F)nc2)C[C@H]1C(=O)O	18.65
CN(C)c1ccc(C(=O)N2CCCc3cc(OC(F)(F)F)ccc32)cn1	13.16
Cc1ccc(NS(=O)(=O)c2ccc(C#N)cc2)c(CN(C)C)c1	8.866
Cc1ccc(C(=O)N2CCCC(N)CC2)cc1N1CCNC1=O (stereo not given)	10.8
O=C(CCC1CCCCC1)NS(=O)(=O)CC1CC1	-21.76
NS(=O)(=O)NCC1(c2ccccc2Br)CC1	25.21
Cc1ccsc1[C@@H]1CCN(C(=O)c2cc3ccccc3[nH]2)C[C@H]1O	16.39
CN1C[C@@H](C(=O)N2CCCOCC2)[C@@]2(CCc3ccccc3C(=O)N2)C1	9.969
Cn1nc(CNS(=O)(=O)Cc2ccccc2F)c2c1CCCC2	24.49
CC(C)n1cc(CN2CCCN(C(=O)c3cc(Cl)c[nH]3)CC2)cn1	4.829
CC(C)(C)c1noc(CN2CCCN(Cc3cccs3)CC2)n1	17.61
COc1cc2[nH]c(=O)c(CN3CCCC3C)cc2c(OC)c1OC (stereo not given)	28.65
CCCn1ccnc1CN1C[C@@H](CN2CCCN(C)CC2)[C@@H](CO)C1	23.07
Cn1cc(C(=O)NCCc2csc(-c3ccccc3)n2)ccc1=O	12.15
CC(C)Cc1ncc2c(n1)CN(C(=O)c1ccc(CN3CCCC3)o1)C2	4.162
CN(CCC#N)C(=O)Cn1nnnc1C(C)(C)C	16.09
NC(=O)C1CN(C(=O)Nc2ccccc2Oc2ccccc2Cl)CCO1 (stereo not given)	19.47
CC(C)c1nc(CC(=O)N(C)Cc2ccc3c(c2)OCO3)cs1	0.03992
COc1cc(C2CC(=O)Nc3c2cnn3C)ccc1O (stereo not given)	11.5
CCCN(C)c1ccc(C(=O)Nc2c(C)nn(C(C)C)c2C)cc1	8.968
Cc1ccc(C(CNCc2nccn2C)N2CCOCC2)s1 (stereo not given)	4.33
Cc1ccc(CN2CCOC(c3cnccn3)C2)s1 (stereo not given)	24.07
O=C(O)C(F)(F)F.[H][C@]12CN(C(=O)c3cc(C)ccn3)C[C@@]1([H])OCCN(S(C)(=O)=O)C2	-10.09
Cc1ccoc1C(=O)N1CCC(n2cc(CO)nn2)CC1	-69.65
CC(C)(C)Cc1nnc(NCc2cccc(C#N)c2)o1	14.93
Cc1nn(C)c(N(C)C)c1CNCc1ccc2c(c1)OCO2	-20.59
CC(C)(C)C(=O)NCCNc1cc(N2CCCC2)ncn1	12.46
CCCn1nc(C)c(CN(CCN(C)C)Cc2ccccn2)c1C	-23.07
CCN(c1ccsc1C(=O)N1CCCCC1)S(=O)(=O)c1ccccc1	4.504
Cc1ccc(F)c2c1N(C(=O)Cc1c(C)nn(C)c1C)CCC2	21.92
CCN(Cc1ccoc1)C(C(N)=O)c1cccc(Br)c1 (stereo not given)	14.28
Cc1ccc(C(=O)Nc2ccc(N3CCCC3)cn2)cc1C	15.72
O=C(O)C(F)(F)F.[H][C@@]12C[C@@H](C(=O)NC(C)C)C[C@@]1([H])N(CC1CC1)CCO2	13.3
Cn1nccc1CCNC(=O)[C@H]1CNC[C@H](C(=O)N2CCCC2)C1	17.16
CSc1ccc(-c2cc(CN)nc3ccnn23)cc1.Cl	-11.31
[H][C@]12CCN(C(=O)c3cc(C)on3)CC[C@@]1([H])S(=O)(=O)N(CCOC)C2	-32.34
Cc1ccc(-c2nnc(C(C)NCCn3cc(C)cn3)o2)cc1 (stereo not given)	-4.1
Cc1ccccc1S(=O)(=O)N[C@@H]1CC[C@@H](N2CCNC(=O)C2)[C@@H]1O	54.18
Cc1ccccc1OCC1CCCN(C(=O)CN(C)C2CCNCC2)C1 (stereo not given)	-45.59
CN(C)C(=O)CN1CCC(c2cncc(-c3cccc(Cl)c3)n2)CC1	23.16
COc1ccc(CCN2CCCC2Cn2nc(C)nc2C)cc1 (stereo not given)	-49.39
NS(=O)(=O)N1CCc2ccc(NC(=O)Cc3ccccc3F)cc21	17.94
CN(C)C1CCCN(Cc2cccc(Cn3cccn3)c2)CC1 (stereo not given)	2.719
O=C(NCCN1CCCCCC1)c1cccc(Cl)c1Cl	38.27
O=C(CN1CCCCC1Cn1cccn1)NC1CCOCC1 (stereo not given)	-2.567
CC(NC(=O)N1CCN(c2ccc(Cl)cc2)CC1)C(=O)N1CCSCC1 (stereo not given)	21.43
[H][C@@]12CCN(C)[C@@]1([H])CCN2S(=O)(=O)Cc1ccc(C)cc1	29.62
Cc1cccc(CN2CCOCC3(CCN(C4CCOCC4)C3)C2)c1.O=C(O)C(F)(F)F.O=C(O)C(F)(F)F (stereo not given)	13.07
c1ccc(CCN2CCCC2c2ccnc(Nc3cnccn3)n2)cc1 (stereo not given)	-4.951
O=C(NCCCO)c1cc(-c2cc[nH]n2)n2ccccc12.O=C(O)C(F)(F)F	18.81
CCc1cnc(NC(=O)NC2CCN(C)CC2)s1	-14.39
CCn1nc(C)c(S(=O)(=O)Nc2ccccc2C(=O)OC)c1C	-31.98
CCOCC1CN(Cc2ccc(OC)cc2)Cc2nn(CC3CC3)cc21.O=C(O)C(F)(F)F (stereo not given)	-7.242
CN(C)CC(=O)N1Cc2nc(C(=O)NCc3ccccc3)oc2C1	-44.32
CC(C)(C(=O)NCCCC(N)=O)c1cccc(Br)c1	0.4675
Cl.Fc1cccc(F)c1Cn1c(C2CCNCC2)cc2cccnc21	23.85
CN1CCc2[nH]nc(C(=O)N3CCCC4(CN(C)C(=O)O4)C3)c2C1 (stereo not given)	-34.65
COCCNS(=O)(=O)c1cccc2c1CN(C(=O)c1ccccc1)CC2	-5.217
CC(C)C(C)NC(=O)c1cccn1Cc1cccnc1 (stereo not given)	19.34
O=C(CN1CCCC1Cn1cncn1)NCCOc1ccccc1 (stereo not given)	3.941

Once more, the final 8:

structure	effect
CCOCC1CN(Cc2ccc(OC)cc2)Cc2nn(CC3CC3)cc21.O=C(O)C(F)(F)F (stereo not given)	-7.242
CN(C)CC(=O)N1Cc2nc(C(=O)NCc3ccccc3)oc2C1	-44.32
CC(C)(C(=O)NCCCC(N)=O)c1cccc(Br)c1	0.4675
Cl.Fc1cccc(F)c1Cn1c(C2CCNCC2)cc2cccnc21	23.85
CN1CCc2[nH]nc(C(=O)N3CCCC4(CN(C)C(=O)O4)C3)c2C1 (stereo not given)	-34.65
COCCNS(=O)(=O)c1cccc2c1CN(C(=O)c1ccccc1)CC2	-5.217
CC(C)C(C)NC(=O)c1cccn1Cc1cccnc1 (stereo not given)	19.34
O=C(CN1CCCC1Cn1cncn1)NCCOc1ccccc1 (stereo not given)	3.941